The values that follow come from paper PMC4682977.

Sequences of proteins named here, by UniProt entry; tags and fusion partners are left off.
UniProt P63010: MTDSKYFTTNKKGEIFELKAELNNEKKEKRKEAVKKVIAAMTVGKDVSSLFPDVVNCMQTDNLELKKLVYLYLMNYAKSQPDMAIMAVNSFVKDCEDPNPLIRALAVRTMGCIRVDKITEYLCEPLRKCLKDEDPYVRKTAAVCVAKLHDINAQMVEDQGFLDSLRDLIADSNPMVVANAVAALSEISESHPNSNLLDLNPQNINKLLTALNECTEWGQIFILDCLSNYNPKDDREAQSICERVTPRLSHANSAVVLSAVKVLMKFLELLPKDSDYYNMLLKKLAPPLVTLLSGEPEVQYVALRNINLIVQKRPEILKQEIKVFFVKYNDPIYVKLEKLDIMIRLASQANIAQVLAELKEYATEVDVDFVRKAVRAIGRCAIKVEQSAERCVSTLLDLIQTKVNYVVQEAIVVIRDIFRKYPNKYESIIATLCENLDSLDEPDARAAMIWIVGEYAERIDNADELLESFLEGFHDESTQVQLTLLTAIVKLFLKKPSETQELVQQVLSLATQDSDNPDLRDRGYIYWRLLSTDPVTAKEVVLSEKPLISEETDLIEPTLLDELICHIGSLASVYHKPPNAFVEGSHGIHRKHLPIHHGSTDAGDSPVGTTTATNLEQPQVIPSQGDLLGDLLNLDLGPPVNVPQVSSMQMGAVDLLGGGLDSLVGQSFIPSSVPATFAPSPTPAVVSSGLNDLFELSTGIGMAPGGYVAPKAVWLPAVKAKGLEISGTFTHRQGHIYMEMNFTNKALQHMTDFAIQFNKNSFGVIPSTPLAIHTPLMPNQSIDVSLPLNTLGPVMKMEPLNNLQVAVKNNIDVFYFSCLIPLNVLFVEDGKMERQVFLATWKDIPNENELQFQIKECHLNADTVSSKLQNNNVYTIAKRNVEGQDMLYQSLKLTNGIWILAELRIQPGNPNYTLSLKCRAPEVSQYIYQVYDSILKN

Results are given in words; binding and its absence hold for the method and conditions named. For some assays here: Binding seen in cells or lysates may run through a third protein. Some binding calls cover weakened binding; strength is not graded here. For some assays here: Where a sequence is shown, tags or fusion partners need not be part of it.

Experiment [1] addresses T1, C-terminally Flag-tagged TβRI (TGF-β type I receptor) (UniProt P36897).
T1 sequence: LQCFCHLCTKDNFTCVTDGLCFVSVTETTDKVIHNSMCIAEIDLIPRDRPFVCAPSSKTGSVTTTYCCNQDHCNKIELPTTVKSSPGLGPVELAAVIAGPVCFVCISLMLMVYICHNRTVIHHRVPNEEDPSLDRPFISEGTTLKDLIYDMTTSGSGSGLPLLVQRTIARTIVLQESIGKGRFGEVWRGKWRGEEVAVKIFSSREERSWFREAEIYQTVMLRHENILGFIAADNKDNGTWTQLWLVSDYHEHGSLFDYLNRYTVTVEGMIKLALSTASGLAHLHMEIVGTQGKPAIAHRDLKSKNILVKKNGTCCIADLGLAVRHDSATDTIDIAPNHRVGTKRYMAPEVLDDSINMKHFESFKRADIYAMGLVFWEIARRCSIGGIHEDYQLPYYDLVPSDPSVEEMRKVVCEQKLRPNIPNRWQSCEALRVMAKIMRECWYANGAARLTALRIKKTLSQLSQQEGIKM
Kind of experiment: co-IP; 293T cells coexpressing TβRII and Flag-tagged TβRI with the partner, with or without increasing amounts of p52ShcA-HA or Smad3-myc plasmid, TGF-β-treated; anti-Flag immunoprecipitation of TβRI, immunoblotting of associated proteins; lysis buffer 25 mM Tris-HCl pH 7.5, 150 mM NaCl, 0.7% Triton X-100, 10% glycerol.

Experiment [2] addresses T2, endogenous TβRI of NMuMG cells (mouse (endogenous in NMuMG)) (UniProt Q64729).
T2 sequence: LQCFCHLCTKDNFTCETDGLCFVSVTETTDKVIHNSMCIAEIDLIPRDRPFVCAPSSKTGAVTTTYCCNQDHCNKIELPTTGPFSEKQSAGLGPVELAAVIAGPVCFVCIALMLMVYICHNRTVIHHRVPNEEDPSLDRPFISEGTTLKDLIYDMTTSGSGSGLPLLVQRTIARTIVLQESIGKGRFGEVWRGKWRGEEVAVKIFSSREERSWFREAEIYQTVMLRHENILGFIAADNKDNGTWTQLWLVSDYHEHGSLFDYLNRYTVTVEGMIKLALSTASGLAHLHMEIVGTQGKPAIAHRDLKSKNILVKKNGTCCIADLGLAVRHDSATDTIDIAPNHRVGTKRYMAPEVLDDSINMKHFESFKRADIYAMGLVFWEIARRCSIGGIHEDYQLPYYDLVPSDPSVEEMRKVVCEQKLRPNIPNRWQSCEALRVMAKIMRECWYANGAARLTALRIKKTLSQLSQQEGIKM
Nature of the experiment: co-IP; NMuMG cells, proteins at endogenous levels, treated or not with TGF-β, transfected with ShcA siRNA or p52ShcA expression plasmid; endogenous TβRI immunoprecipitated with anti-TβRI, associated β2-adaptin or caveolin 1 immunoblotted.

In experiment [3] the target is T1, C-terminally Flag-tagged TβRI (TGF-β type I receptor). Kind of experiment: co-IP; 293T cells coexpressing TβRII and Flag-tagged TβRI with the partner, with or without increasing amounts of p52ShcA-HA or Smad3-myc plasmid, TGF-β-treated; anti-Flag immunoprecipitation of TβRI, immunoblotting of associated proteins; lysis buffer 25 mM Tris-HCl pH 7.5, 150 mM NaCl, 0.7% Triton X-100, 10% glycerol. This is another data set of the same source.

The target is the same in experiment [4]. Nature of the experiment: pull-down; GST-Smad3 immobilised on glutathione-Sepharose, incubated 20 min at 4°C with immunopurified Flag-TβRI from TGF-β-treated 293T cells; after three washes the beads were incubated with His-tagged ShcA for 30 min at 4°C; bound and unbound proteins immunoblotted; one sample with TβRI dephosphorylated by lambda phosphatase; both purified.

Regarding “GFP-tagged caveolin-1 (from UniProt Q03135 1-178)”, in experiment [1], the binding result is recorded as “binds”.

“GFP-tagged β2-adaptin (from UniProt P63010 1-937)”: the binding result in experiment [1] is on record as “binds”.

B1: endogenous caveolin 1 of NMuMG cells (protein, UniProt P49817 1-178)
chain: MSGGKYVDSEGHLYTVPIREQGNIYKPNNKAMADEVTEKQVYDAHTKEIDLVNRDPKHLNDDVVKIDFEDVIAEPEGTHSFDGIWKASFTTFTVTKYWFYRLLSTIFGIPMALIWGIYFAILSFLHIWAVVPCIKSFLIEIQCISRVYSIYVHTFCDPLFEAIGKIFSNIRISTQKEI
Regarding B1, the binding result in experiment [2] is given as “binds”.

B2: C-terminally haemagglutinin (HA)-tagged p52ShcA (protein, UniProt P29353-2 1-473)
chain: MNKLSGGGGRRTRVEGGQLGGEEWTRHGSFVNKPTRGWLHPNDKVMGPGVSYLVRYMGCVEVLQSMRALDFNTRTQVTREAISLVCEAVPGAKGATRRRKPCSRPLSSILGRSNLKFAGMPITLTVSTSSLNLMAADCKQIIANHHMQSISFASGGDPDTAEYVAYVAKDPVNQRACHILECPEGLAQDVISTIGQAFELRFKQYLRNPPKLVTPHDRMAGFDGSAWDEEEEEPPDHQYYNDFPGKEPPLGGVVDMRLREGAAPGAARPTAPNAQTPSHLGATLPVGQPVGGDPEVRKQMPPPPPCPGRELFDDPSYVNVQNLDKARQAVGGAGPPNPAINGSAPRDLFDMKPFEDALRVPPPPQSVSMAEQLRGEPWFHGKLSRREAEALLQLNGDFLVRESTTTPGQYVLTGLQSGQPKHLLLVDPEGVVRTKDHRFESVSHLISYHMDNHLPIISAGSELCLQQPVERKL
Consider B2, for which, in experiment [3], the binding entry is reported as “binds”.

B3: His-tagged p52ShcA (protein, UniProt P29353-2 1-473)
chain: B2 chain
For the molecule B3, in experiment [4], the binding result is recorded as “binds”.
